Test results published in publication PMC5421940.
These are yes or no findings as the source states them, for the method shown. In cells and extracts the contact can be indirect. Binding can be weak; no strength is given. Tags and fused reporters may be left off the sequences shown.

B1: endogenous PP4R1 (MCC13 cells) (protein, UniProt Q8TF05 1-950)
chain: MADLSLLQEDLQEDADGFGVDDYSSESDVIIIPSALDFVSQDEMLTPLGRLDKYAASENIFNRQMVARSLLDTLREVCDDERDCIAVLERISRLADDSEPTVRAELMEQVPHIALFCQENRPSIPYAFSKFLLPIVVRYLADQNNQVRKTSQAALLALLEQELIERFDVETKVCPVLIELTAPDSNDDVKTEAVAIMCKMAPMVGKDITERLILPRFCEMCCDCRMFHVRKVCAANFGDICSVVGQQATEEMLLPRFFQLCSDNVWGVRKACAECFMAVSCATCQEIRRTKLSALFINLISDPSRWVRQAAFQSLGPFISTFANPSSSGQYFKEESKSSEEMSVENKNRTRDQEAPEDVQVRPEDTPSDLSVSNSSVILENTMEDHAAEASGKPLGEISVPLDSSLLCTLSSESHQEAASNENDKKPGNYKSMLRPEVGTTSQDSALLDQELYNSFHFWRTPLPEIDLDIELEQNSGGKPSPEGPEEESEGPVPSSPNITMATRKELEEMIENLEPHIDDPDVKAQVEVLSAALRASSLDAHEETISIEKRSDLQDELDINELPNCKINQEDSVPLISDAVENMDSTLHYIHSDSDLSNNSSFSPDEERRTKVQDVVPQALLDQYLSMTDPSRAQTVDTEIAKHCAYSLPGVALTLGRQNWHCLRETYETLASDMQWKVRRTLAFSIHELAVILGDQLTAADLVPIFNGFLKDLDEVRIGVLKHLHDFLKLLHIDKRREYLYQLQEFLVTDNSRNWRFRAELAEQLILLLELYSPRDVYDYLRPIALNLCADKVSSVRWISYKLVSEMVKKLHAATPPTFGVDLINELVENFGRCPKWSGRQAFVFVCQTVIEDDCLPMDQFAVHLMPHLLTLANDRVPNVRVLLAKTLRQTLLEKDYFLASASCHQEAVEQTIMALQMDRDSDVKYFASIHPASTKISEDAMSTASSTY
B2: HA-PP4R1, ITT produced (protein, UniProt Q8TF05 1-950)
chain: B1 chain
B3: FLAG-PP4c (expressed in cells) (enzyme, UniProt P60510 1-307)
chain: MAEISDLDRQIEQLRRCELIKESEVKALCAKAREILVEESNVQRVDSPVTVCGDIHGQFYDLKELFRVGGDVPETNYLFMGDFVDRGFYSVETFLLLLALKVRYPDRITLIRGNHESRQITQVYGFYDECLRKYGSVTVWRYCTEIFDYLSLSAIIDGKIFCVHGGLSPSIQTLDQIRTIDRKQEVPHDGPMCDLLWSDPEDTTGWGVSPRGAGYLFGSDVVAQFNAANDIDMICRAHQLVMEGYKWHFNETVLTVWSAPNYCYRCGNVAAILELDEHLQKDFIIFEAAPQETRGIPSKKPVADYFL
B4: endogenous PP4c (MCC13 cells) (enzyme, UniProt P60510 1-307)
chain: B3 chain
B5: HA-PP4R1 (expressed in cells) (protein, UniProt Q8TF05 1-950)
chain: B1 chain
B6: FLAG-tagged PP4c, ITT produced (enzyme, UniProt P60510 1-307)
chain: B3 chain

Assays:
[1] = target: GFP-MCPyV tAg (Merkel cell polyomavirus small T antigen, wild type) (Merkel cell polyomavirus); test: co-IP
[2] = target: GST-tAg (bacterially expressed MCPyV small T antigen) (Merkel cell polyomavirus); test: pull-down; bacterially expressed GST fusion on glutathione-agarose beads, incubated 3 hours in lysis buffer with one ITT produced protein alone, western blot; only the target purified
[3] = target: GFP-MCPyV tAg N100A (Merkel cell polyomavirus); test: co-IP

Binder	binding [1]	binding [2]	binding [3]
B1	binds	–	–
B2	–	binds	–
B3	binds	–	binds
B4	binds	–	–
B5	binds	–	–
B6	–	binds	–
